# According to ChEMBL document CHEMBL5674883, “The Heterochromatin Landscape in Migrating Cells and the Importance of H3K27me3 for Associated Transcriptome Alterations” (Cells, 2018):
# The chains behind the UniProt entries cited, without tags or fusion partners.
# UniProt Q61188, whole entry: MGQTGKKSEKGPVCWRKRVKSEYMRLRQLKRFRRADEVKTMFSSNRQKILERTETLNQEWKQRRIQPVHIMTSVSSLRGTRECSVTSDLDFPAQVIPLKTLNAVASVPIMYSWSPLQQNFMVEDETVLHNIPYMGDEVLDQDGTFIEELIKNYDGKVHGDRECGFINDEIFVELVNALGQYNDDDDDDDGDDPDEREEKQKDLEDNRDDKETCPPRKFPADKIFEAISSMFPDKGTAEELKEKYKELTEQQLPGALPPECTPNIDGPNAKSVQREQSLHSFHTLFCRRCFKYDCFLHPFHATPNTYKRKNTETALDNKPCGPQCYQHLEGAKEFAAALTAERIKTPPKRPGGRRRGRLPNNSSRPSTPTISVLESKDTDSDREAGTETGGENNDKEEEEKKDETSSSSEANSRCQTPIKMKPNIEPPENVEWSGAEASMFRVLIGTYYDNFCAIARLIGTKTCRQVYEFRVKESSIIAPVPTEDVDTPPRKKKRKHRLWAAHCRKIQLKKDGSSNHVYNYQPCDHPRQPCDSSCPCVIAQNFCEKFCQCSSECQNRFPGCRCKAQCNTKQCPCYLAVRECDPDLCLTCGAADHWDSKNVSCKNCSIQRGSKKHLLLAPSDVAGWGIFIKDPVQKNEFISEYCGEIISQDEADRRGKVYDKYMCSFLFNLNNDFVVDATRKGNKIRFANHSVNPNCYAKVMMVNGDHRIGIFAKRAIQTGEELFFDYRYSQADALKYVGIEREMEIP
# This continues a long series; more values of the same kind are listed elsewhere.
# Legend:
# Type in all cases: cell-based
# [1] = biological target: Histone-lysine N-methyltransferase EZH2 (Mus musculus) (UniProt Q61188); assay: Inhibition of EZH2 in mouse B16-F1 migrating cells assessed as fold change in H3K27me3-dependent regulated Plk2-mRNA expression at 3 uM measured by ChIP-seq analysis relative to control cells
# [2] = biological target: Histone-lysine N-methyltransferase EZH2 (Mus musculus) (UniProt Q61188); assay: Inhibition of EZH2 in mouse B16-F1 migrating cells assessed as fold change in H3K27me3-buffered regulated Ing2-mRNA expression at 3 uM measured by ChIP-seq analysis relative to control cells
# [3] = biological target: Histone-lysine N-methyltransferase EZH2 (Mus musculus) (UniProt Q61188); assay: Inhibition of EZH2 in mouse B16-F1 migrating cells assessed as fold change in H3K27me3-buffered regulated Rock2-mRNA expression at 3 uM measured by ChIP-seq analysis relative to control cells
# [4] = biological target: Histone-lysine N-methyltransferase EZH2 (Mus musculus) (UniProt Q61188); assay: Inhibition of EZH2 in mouse B16-F1 migrating cells assessed as fold change in H3K27me3-buffered regulated Ptch1-mRNA expression at 3 uM measured by ChIP-seq analysis relative to control cells
# [5] = biological target: Histone-lysine N-methyltransferase EZH2 (Mus musculus) (UniProt Q61188); assay: Inhibition of EZH2 in mouse B16-F1 migrating cells assessed as fold change in H3K27me3-independent regulated Fosb-mRNA expression at 3 uM measured by ChIP-seq analysis relative to control cells
# [6] = biological target: T1, RNA polymerase II (Mus musculus) (UniProt P08775+Q8CFI7+P97760+A0A3Q4L2S8+Q80UW8+P61219+P62488+Q923G2+P60898+O08740+Q63871+P62876); assay: Inhibition of RNA polymerase II in mouse B16-F1 migrating cells assessed as fold change in Bnip1-RNA stability at 0.1 mM measured by ChIP-seq analysis relative to control cells
# [7] = biological target: T1, RNA polymerase II (Mus musculus); assay: Inhibition of RNA polymerase II in mouse B16-F1 migrating cells assessed as fold change in Tmem42-RNA stability at 0.1 mM measured by ChIP-seq analysis relative to control cells
# [8] = biological target: T1, RNA polymerase II (Mus musculus); assay: Inhibition of RNA polymerase II in mouse B16-F1 migrating cells assessed as fold change in Cenpj-RNA stability at 0.1 mM measured by ChIP-seq analysis relative to control cells
# [9] = biological target: T1, RNA polymerase II (Mus musculus); assay: Inhibition of RNA polymerase II in mouse B16-F1 migrating cells assessed as fold change in Zfp729b-RNA stability at 0.1 mM measured by ChIP-seq analysis relative to control cells
# [10] = biological target: T1, RNA polymerase II (Mus musculus); assay: Inhibition of RNA polymerase II in mouse B16-F1 migrating cells assessed as fold change in Uevld-RNA stability at 0.1 mM measured by ChIP-seq analysis relative to control cells
# [11] = biological target: T1, RNA polymerase II (Mus musculus); assay: Inhibition of RNA polymerase II in mouse B16-F1 migrating cells assessed as fold change in Top1-RNA stability at 0.1 mM measured by ChIP-seq analysis relative to control cells
# [12] = biological target: T1, RNA polymerase II (Mus musculus); assay: Inhibition of RNA polymerase II in mouse B16-F1 migrating cells assessed as fold change in Gtf2h1-RNA stability at 0.1 mM measured by ChIP-seq analysis relative to control cells
# [13] = biological target: T1, RNA polymerase II (Mus musculus); assay: Inhibition of RNA polymerase II in mouse B16-F1 migrating cells assessed as fold change in Cdk15-RNA stability at 0.1 mM measured by ChIP-seq analysis relative to control cells
# [14] = biological target: T1, RNA polymerase II (Mus musculus); assay: Inhibition of RNA polymerase II in mouse B16-F1 migrating cells assessed as fold change in Dyrk3-RNA stability at 0.1 mM measured by ChIP-seq analysis relative to control cells
# [15] = biological target: T1, RNA polymerase II (Mus musculus); assay: Inhibition of RNA polymerase II in mouse B16-F1 migrating cells assessed as fold change in Ppig-RNA stability at 0.1 mM measured by ChIP-seq analysis relative to control cells
# [16] = biological target: T1, RNA polymerase II (Mus musculus); assay: Inhibition of RNA polymerase II in mouse B16-F1 migrating cells assessed as fold change in Nup50-RNA stability at 0.1 mM measured by ChIP-seq analysis relative to control cells
# [17] = biological target: T1, RNA polymerase II (Mus musculus); assay: Inhibition of RNA polymerase II in mouse B16-F1 migrating cells assessed as fold change in Ercc5-RNA stability at 0.1 mM measured by ChIP-seq analysis relative to control cells
# [18] = biological target: T1, RNA polymerase II (Mus musculus); assay: Inhibition of RNA polymerase II in mouse B16-F1 migrating cells assessed as fold change in Trmt10c-RNA stability at 0.1 mM measured by ChIP-seq analysis relative to control cells
# [19] = biological target: T1, RNA polymerase II (Mus musculus); assay: Inhibition of RNA polymerase II in mouse B16-F1 migrating cells assessed as fold change in Csde1-RNA stability at 0.1 mM measured by ChIP-seq analysis relative to control cells
# [20] = biological target: T1, RNA polymerase II (Mus musculus); assay: Inhibition of RNA polymerase II in mouse B16-F1 migrating cells assessed as fold change in D3Ertd751e-RNA stability at 0.1 mM measured by ChIP-seq analysis relative to control cells
# [21] = biological target: T1, RNA polymerase II (Mus musculus); assay: Inhibition of RNA polymerase II in mouse B16-F1 migrating cells assessed as fold change in Yme1l1-RNA stability at 0.1 mM measured by ChIP-seq analysis relative to control cells
# [22] = biological target: T1, RNA polymerase II (Mus musculus); assay: Inhibition of RNA polymerase II in mouse B16-F1 migrating cells assessed as fold change in Pnpt1-RNA stability at 0.1 mM measured by ChIP-seq analysis relative to control cells
# [23] = biological target: T1, RNA polymerase II (Mus musculus); assay: Inhibition of RNA polymerase II in mouse B16-F1 migrating cells assessed as fold change in Loxl2-RNA stability at 0.1 mM measured by ChIP-seq analysis relative to control cells
# [24] = biological target: T1, RNA polymerase II (Mus musculus); assay: Inhibition of RNA polymerase II in mouse B16-F1 migrating cells assessed as fold change in Eif4e2-RNA stability at 0.1 mM measured by ChIP-seq analysis relative to control cells
# [25] = biological target: T1, RNA polymerase II (Mus musculus); assay: Inhibition of RNA polymerase II in mouse B16-F1 migrating cells assessed as fold change in Rad50-RNA stability at 0.1 mM measured by ChIP-seq analysis relative to control cells
# [26] = biological target: T1, RNA polymerase II (Mus musculus); assay: Inhibition of RNA polymerase II in mouse B16-F1 migrating cells assessed as fold change in Ralgds-RNA stability at 0.1 mM measured by ChIP-seq analysis relative to control cells
# [27] = biological target: T1, RNA polymerase II (Mus musculus); assay: Inhibition of RNA polymerase II in mouse B16-F1 migrating cells assessed as fold change in Aire-RNA stability at 0.1 mM measured by ChIP-seq analysis relative to control cells
# [28] = biological target: T1, RNA polymerase II (Mus musculus); assay: Inhibition of RNA polymerase II in mouse B16-F1 migrating cells assessed as fold change in Edaradd-RNA stability at 0.1 mM measured by ChIP-seq analysis relative to control cells
# [29] = biological target: T1, RNA polymerase II (Mus musculus); assay: Inhibition of RNA polymerase II in mouse B16-F1 migrating cells assessed as fold change in Eif5a2-RNA stability at 0.1 mM measured by ChIP-seq analysis relative to control cells
# [30] = biological target: T1, RNA polymerase II (Mus musculus); assay: Inhibition of RNA polymerase II in mouse B16-F1 migrating cells assessed as fold change in Pcf11-RNA stability at 0.1 mM measured by ChIP-seq analysis relative to control cells
# [31] = biological target: T1, RNA polymerase II (Mus musculus); assay: Inhibition of RNA polymerase II in mouse B16-F1 migrating cells assessed as fold change in Vegfb-RNA stability at 0.1 mM measured by ChIP-seq analysis relative to control cells
smiles,measurement,setting,value
CCCc1cc(C)[nH]c(=O)c1CNC(=O)c1cc(-c2ccnc(N3CCN(C)CC3)c2)cc2c1cnn2C(C)C,log2FC,[1],0.09
same,log2FC,[2],-0.4
same,log2FC,[3],-0.4
same,log2FC,[4],-0.48
same,log2FC,[5],1.63
OC[C@H]1O[C@@H](n2cnc3cc(Cl)c(Cl)cc32)[C@H](O)[C@@H]1O,log2FC,[6],0.51
same,log2FC,[7],0.56
same,log2FC,[8],-0.92
same,log2FC,[9],-0.9
same,log2FC,[10],-0.4
same,log2FC,[11],-0.64
same,log2FC,[12],-0.73
same,log2FC,[13],-0.48
same,log2FC,[14],-1.09
same,log2FC,[15],-0.81
same,log2FC,[16],-0.48
same,log2FC,[17],-0.51
same,log2FC,[18],-0.82
same,log2FC,[19],-0.73
same,log2FC,[20],-0.95
same,log2FC,[21],-0.88
same,log2FC,[22],-0.73
same,log2FC,[23],0.83
same,log2FC,[24],0.39
same,log2FC,[25],-0.57
same,log2FC,[26],0.56
same,log2FC,[27],1.35
same,log2FC,[28],-1.22
same,log2FC,[29],-0.66
same,log2FC,[30],-0.73
same,log2FC,[31],0.43
